# Results are given in words; binding and its absence hold for the method and conditions named. Some entries that bind do so weakly or less than the wild type.
# Chains of the proteins cited; added tags and fusions are not shown. Lines headed by an entry give the natural chain unless they say otherwise; changes in a name come on top.
# UniProt P60568: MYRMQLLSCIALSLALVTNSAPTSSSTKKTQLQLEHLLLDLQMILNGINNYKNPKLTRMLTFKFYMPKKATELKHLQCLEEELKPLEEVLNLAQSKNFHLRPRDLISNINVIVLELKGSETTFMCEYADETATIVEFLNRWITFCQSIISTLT
# Assays:
# IL2Rαβγ on CTLL2 cells [1] = target: T1, IL2Rαβγ on CTLL2 cells (UniProt P01590); assay: flow cytometry on cells
# T1 sequence (looked up) 1: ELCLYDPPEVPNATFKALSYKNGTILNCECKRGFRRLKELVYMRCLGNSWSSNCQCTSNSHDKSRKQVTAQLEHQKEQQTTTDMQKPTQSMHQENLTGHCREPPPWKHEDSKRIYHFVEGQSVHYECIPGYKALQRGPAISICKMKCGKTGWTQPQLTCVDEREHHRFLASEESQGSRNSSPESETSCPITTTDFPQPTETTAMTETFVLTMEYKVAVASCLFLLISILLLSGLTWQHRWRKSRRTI
# T1 sequence (looked up) 2: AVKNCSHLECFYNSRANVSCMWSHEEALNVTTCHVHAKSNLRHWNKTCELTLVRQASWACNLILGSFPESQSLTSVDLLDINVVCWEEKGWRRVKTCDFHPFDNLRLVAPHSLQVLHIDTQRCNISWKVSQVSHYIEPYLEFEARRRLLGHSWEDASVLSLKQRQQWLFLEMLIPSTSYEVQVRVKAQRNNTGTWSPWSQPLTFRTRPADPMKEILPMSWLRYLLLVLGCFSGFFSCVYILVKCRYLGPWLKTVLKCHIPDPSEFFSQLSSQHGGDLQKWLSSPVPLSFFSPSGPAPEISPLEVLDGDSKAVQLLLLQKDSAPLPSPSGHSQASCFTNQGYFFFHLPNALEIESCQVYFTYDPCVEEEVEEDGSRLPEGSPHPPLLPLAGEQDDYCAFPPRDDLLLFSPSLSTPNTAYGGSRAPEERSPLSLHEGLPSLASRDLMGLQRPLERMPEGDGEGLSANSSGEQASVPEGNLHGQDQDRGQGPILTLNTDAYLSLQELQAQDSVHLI
# T1 sequence (looked up) 3: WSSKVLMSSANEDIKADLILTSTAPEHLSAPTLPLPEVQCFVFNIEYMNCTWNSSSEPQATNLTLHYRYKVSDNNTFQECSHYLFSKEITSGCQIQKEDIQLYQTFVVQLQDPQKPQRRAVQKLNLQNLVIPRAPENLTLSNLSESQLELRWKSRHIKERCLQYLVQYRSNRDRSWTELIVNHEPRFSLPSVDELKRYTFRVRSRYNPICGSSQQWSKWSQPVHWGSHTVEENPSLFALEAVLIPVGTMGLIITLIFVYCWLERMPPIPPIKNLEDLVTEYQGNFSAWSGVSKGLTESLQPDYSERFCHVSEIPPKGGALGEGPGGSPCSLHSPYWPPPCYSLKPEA
# IL2Rαβγ on CTLL2 cells [2] = target: T1, IL2Rαβγ on CTLL2 cells; assay: flow cytometry on CTLL2 cells, His-tagged IL-2 detected with anti-His-APC
# IL2Rαβγ on CTLL2 cells [3] = target: T1, IL2Rαβγ on CTLL2 cells; assay: flow cytometry: His-tagged IL-2 variant on CTLL2 cells at 4 °C, detected with anti-His-APC; panel title '191106 ctll2 3 wash 0 hours'
binding (IL2Rαβγ on CTLL2 cells [1]),binding (IL2Rαβγ on CTLL2 cells [2]),binding (IL2Rαβγ on CTLL2 cells [3]),Substance
binds,binds,binds,Y31C mutein (from UniProt P60568 21-153) (ligand)
–,binds,–,Y31C-PEG20 (from UniProt P60568 21-153) (ligand)
–,–,binds,recombinant human IL-2 with mutation from Cysteine to Serine at position 125 (rhIL-2) (from UniProt P60568 21-153) (ligand)

# From patent US20220289806A1 (CYTIMM THERAPEUTICS, published 2022)
